Assay results as given in the supplement of paper PMC8728848.
Some of the results follow.

Legend:
Experiment in all cases: glycan array binding signal (z-score within array); higher = stronger binding
Conditions in all cases: glycan notation: IUPAC condensed, linker removed
[1] = molecular target: Fuc(a1-2)Gal(b1-4)GlcNAc(b1-3)Gal(b1-4)GlcNAc(b1-2)Man(a1-3)[Fuc(a1-2)Gal(b1-4)GlcNAc(b1-3)Gal(b1-4)GlcNAc(b1-2)Man(a1-6)]Man(b1-4)GlcNAc(b1-4)GlcNAc
Summary of the method: (§1)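 From the Consortium for Functional Glycomics database, 3228 arrays were curated, keeping only those whose protein sequence was available. Binding is given as a within-array Z-score averaged across arrays sharing a protein sequence and across linkers. Negative Z-scores can be read as non-binding.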

[2] = molecular target: Fuc(a1-2)Gal(b1-4)GlcNAc(b1-3)Gal(b1-4)GlcNAc(b1-3)Gal(b1-4)GlcNAc
Summary of the method: as §1

[3] = molecular target: Fuc(a1-2)Gal(b1-4)GlcNAc(b1-3)GalNAc
Summary of the method: as §1

[4] = molecular target: Fuc(a1-2)Gal(b1-4)GlcNAc(b1-3)[Fuc(a1-2)Gal(b1-4)GlcNAc(b1-6)]GalNAc
Summary of the method: as §1

[5] = molecular target: Fuc(a1-2)Gal(b1-4)GlcNAc(b1-3)[Fuc(a1-3)[Gal(b1-4)]GlcNAc(b1-6)]Gal(b1-4)Glc
Summary of the method: as §1

[6] = molecular target: Fuc(a1-2)Gal(b1-4)GlcNAc(b1-6)GalNAc
Summary of the method: as §1

[7] = molecular target: Fuc(a1-2)Gal(b1-4)GlcNAc6S
Summary of the method: as §1

[8] = molecular target: Fuc(a1-2)Gal(b1-4)[Fuc(a1-3)]GlcNAc
Summary of the method: as §1

[9] = molecular target: Fuc(a1-2)Gal(b1-4)[Fuc(a1-3)]GlcNAc(b1-2)Man(a1-3)[Fuc(a1-2)Gal(b1-4)[Fuc(a1-3)]GlcNAc(b1-2)Man(a1-6)]Man(b1-4)GlcNAc(b1-4)[Fuc(a1-6)]GlcNAc
Summary of the method: as §1

[10] = molecular target: Fuc(a1-2)Gal(b1-4)[Fuc(a1-3)]GlcNAc(b1-2)[Fuc(a1-2)Gal(b1-4)[Fuc(a1-3)]GlcNAc(b1-4)]Man(a1-3)[Fuc(a1-2)Gal(b1-4)[Fuc(a1-3)]GlcNAc(b1-2)Man(a1-6)]Man(b1-4)GlcNAc(b1-4)GlcNAc
Summary of the method: as §1

[11] = molecular target: Fuc(a1-2)Gal(b1-4)[Fuc(a1-3)]GlcNAc(b1-3)Gal(b1-4)[Fuc(a1-3)]GlcNAc
Summary of the method: as §1

[12] = molecular target: Fuc(a1-2)Gal(b1-4)[Fuc(a1-3)]GlcNAc(b1-3)Gal(b1-4)[Fuc(a1-3)]GlcNAc(b1-3)Gal(b1-4)[Fuc(a1-3)]GlcNAc
Summary of the method: as §1

[13] = molecular target: Fuc(a1-2)Gal(b1-4)[Fuc(a1-3)]GlcNAc(b1-3)GalNAc
Summary of the method: as §1

[14] = molecular target: Fuc(a1-2)Gal(b1-4)[Fuc(a1-3)]GlcNAc(b1-3)[Neu5Ac(a2-6)Gal(b1-4)GlcNAc(b1-6)]Gal(b1-4)Glc
Summary of the method: as §1

[15] = molecular target: Fuc(a1-2)Gal3S(b1-4)GlcNAc
Summary of the method: as §1

[16] = molecular target: Fuc(a1-2)Gal6S(b1-3)GlcNAc
Summary of the method: as §1

[17] = molecular target: Fuc(a1-2)Gal6S(b1-3)GlcNAc6S
Summary of the method: as §1

Fuc(a1-2)Gal6S(b1-4)Glc = molecular target: Fuc(a1-2)Gal6S(b1-4)Glc
Summary of the method: as §1

[18] = molecular target: Fuc(a1-2)Gal6S(b1-4)Glc6S
Summary of the method: as §1

Fuc(a1-2)[Gal(a1-3)]Gal = molecular target: Fuc(a1-2)[Gal(a1-3)]Gal
Summary of the method: as §1

[19] = molecular target: Fuc(a1-2)[Gal(a1-3)]Gal(b1-3)GalNAc
Summary of the method: as §1

[20] = molecular target: Fuc(a1-2)[Gal(a1-3)]Gal(b1-3)GalNAc(b1-3)Gal(a1-4)Gal(b1-4)Glc
Summary of the method: as §1

[21] = molecular target: Fuc(a1-2)[Gal(a1-3)]Gal(b1-3)GlcNAc
Summary of the method: as §1

[22] = molecular target: Fuc(a1-2)[Gal(a1-3)]Gal(b1-3)GlcNAc(b1-2)Man(a1-3)[Fuc(a1-2)[Gal(a1-3)]Gal(b1-3)GlcNAc(b1-2)Man(a1-6)]Man(b1-4)GlcNAc(b1-4)GlcNAc
Summary of the method: as §1

[23] = molecular target: Fuc(a1-2)[Gal(a1-3)]Gal(b1-3)GlcNAc(b1-2)Man(a1-3)[Fuc(a1-2)[Gal(a1-3)]Gal(b1-3)GlcNAc(b1-2)Man(a1-6)]Man(b1-4)GlcNAc(b1-4)[Fuc(a1-6)]GlcNAc
Summary of the method: as §1

[24] = molecular target: Fuc(a1-2)[Gal(a1-3)]Gal(b1-3)GlcNAc(b1-3)GalNAc
Summary of the method: as §1

[25] = molecular target: Fuc(a1-2)[Gal(a1-3)]Gal(b1-3)GlcNAc(b1-6)GalNAc
Summary of the method: as §1

[26] = molecular target: Fuc(a1-2)[Gal(a1-3)]Gal(b1-4)Glc
Summary of the method: as §1

[27] = molecular target: Fuc(a1-2)[Gal(a1-3)]Gal(b1-4)GlcNAc
Summary of the method: as §1

[28] = molecular target: Fuc(a1-2)[Gal(a1-3)]Gal(b1-4)GlcNAc(b1-2)Man
Summary of the method: as §1

B1: HA-61200 (Pseudomonas aeruginosa), Q02SP8_PSEAB (protein)
chain: MNKCYALVWNVSQGCWNVVSEGSRRRGKPAGAKAAIASVLALLGATALAPAYALPSGGTVVGGSANGEIHLSGGNSLSVNQKVDKLIANWDSFSVAAGERVIFNQPSSSSIALNRVIGTKASDIQGRIDANGQVFLVNPNGVLFGRGAQVNVGGLVASTLDITDAEFNGNSSRYRFTGPSTNGVLNHGGAITAAEGGSIALLGAQVDNRGTVLAQMGGVGLGAGSDLTLNFDGNKLLDIRVDAGVANALASNGGLLKADGGRVLMAARTANALLNTVVNSQGAIEARSLRGKNGRIVLDG
- glycan array binding signal (z-score) [1]: 0.205
- glycan array binding signal (z-score) [2]: -1.04
- glycan array binding signal (z-score) [3]: -0.278
- glycan array binding signal (z-score) [4]: 0.694
- glycan array binding signal (z-score) [5]: 0.103
- glycan array binding signal (z-score) [6]: -0.813
- glycan array binding signal (z-score) [7]: -0.835
- glycan array binding signal (z-score) [8]: -0.401
- glycan array binding signal (z-score) [9]: 2.1
- glycan array binding signal (z-score) [10]: 0.963
- glycan array binding signal (z-score) [11]: -0.777
- glycan array binding signal (z-score) [12]: -0.444
- glycan array binding signal (z-score) [13]: 1.92
- glycan array binding signal (z-score) [14]: -1.2
- glycan array binding signal (z-score) [15]: -0.283
- glycan array binding signal (z-score) [16]: -0.096
- glycan array binding signal (z-score) [17]: -0.424
- glycan array binding signal (z-score) (Fuc(a1-2)Gal6S(b1-4)Glc): -0.905
- glycan array binding signal (z-score) [18]: -0.231
- glycan array binding signal (z-score) (Fuc(a1-2)[Gal(a1-3)]Gal): 0.015
- glycan array binding signal (z-score) [19]: -0.249
- glycan array binding signal (z-score) [20]: -1.23
- glycan array binding signal (z-score) [21]: -0.174
- glycan array binding signal (z-score) [22]: -0.089
- glycan array binding signal (z-score) [23]: -0.954
- glycan array binding signal (z-score) [24]: 0.328
- glycan array binding signal (z-score) [25]: 0.051
- glycan array binding signal (z-score) [26]: 0.106
- glycan array binding signal (z-score) [27]: 0.085
- glycan array binding signal (z-score) [28]: -0.018
